This assay can be described thus: qHTS Assay for Modulators of Lamin A Splicing. Conditions: HeLa LMNA splicing GFP/RFP minigene ratio, 48 h. In short, it runs like this:
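S3 HeLa stable clones carrying a lamin A-EGFP splicing minigene plus DsRed2 were seeded at 600 cells/well in Opti-MEM with 2% FBS, pin-dosed and incubated 48 h at 37°C. Acumen cytometry (488 nm) gave the GFP/RFP total-intensity ratio.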
A general note: Quantitative high-throughput screening tests each substance at several concentrations.

Where [1] appears, read: measured here: GFP splicing reporter channel.
[2] abbreviates: measured here: RFP viability control channel.

Each structure is given as a SMILES string. Where “and” joins values, the source holds several entries; their conditions need not be identical. Equal entries are not always repeated. The list shows a part of the results. Shown are side measurements of this screen, not its main read-out; they come without a call. Compounds called inactive in the main read-out are mostly missing here. Words in brackets tell the shape of the fitted curve; partial curves, single points and poor fits give uncertain potencies.

By AC50 is commonly meant the midpoint of the concentration-response curve, whichever way the signal moves.

Turning to `O=C(CN1CCCCC1)c1ccccc1F`, under setting [1], the AC50 was 7.94 µM [falling, partial curve]. For `COc1ccc2ccc(O)c(CN3CC=C(c4ccccc4)CC3)c2c1`, under setting [1], the AC50 was 0.0178 µM [falling, full curve, poor fit]. For the molecule `C[C@H](NC(C)(C)C)C(=O)c1cccc(Cl)c1`, the AC50 under setting [1] was 0.00398 µM [falling, full curve, poor fit].

With `O=c1[nH]c(=S)n(-c2ccc(Br)cc2)c(O)c1C=Nc1ccc(N2CCOCC2)cc1`, the AC50 runs as follows: under setting [1], 12.6 µM [rising, single point]; under setting [2], 22.4 µM [rising, single point]. As for `O=C(Nc1ccc(Br)cc1)c1cc(Br)cc(Br)c1O`, the AC50 is 0.708 µM [rising, full curve, poor fit] under setting [1] and 5.62 µM [rising, partial curve, poor fit] under setting [2]. As for `CNC[C@H](O)c1ccc(OC(=O)C(C)(C)C)c(OC(=O)C(C)(C)C)c1`, the AC50 under setting [1] is 7.94 µM [falling, partial curve, poor fit]. Consider `O=C(N/N=C\c1ccc(COc2ccc([N+](=O)[O-])cc2)o1)c1cccc(Cl)c1`, for which the AC50 was 28.2 µM [rising, single point] under setting [1] and 35.5 µM [rising, single point] under setting [2]. For `CCCSc1ccc2nc(NC(=O)OC)[nH]c2c1`, the AC50 was 100 nM [falling, full curve] and 2.82 µM [rising, full curve] under setting [1]; 398 nM [rising, full curve] and 1.12 µM [rising, full curve] under setting [2].

Regarding `COC(=O)[C@@H]1[C@@H]2C[C@H]3c4[nH]c5cc(OC)ccc5c4CCN3C[C@@H]2C[C@H](OC(=O)/C=C\c2cc(OC)c(OC)c(OC)c2)[C@H]1OC`, the AC50 reads like this: under setting [1], 0.501 µM [falling, partial curve, poor fit]; under setting [2], 14.1 µM [falling, single point]. On to `Cn1c(=O)oc2cc(S(=O)(=O)NC3CCCCCCC3)ccc21`, for which the AC50 under setting [2] is 14.1 µM [rising, partial curve]. For `COc1ccc2c3c1O[C@H]1C(=O)CC[C@H]4[C@@H](C2)N(C)CC[C@]314`, the AC50 under setting [1] was 6.31 µM [falling, partial curve, poor fit] and the AC50 under setting [2] was 8.91 µM [falling, partial curve, poor fit]. For the molecule `CCOc1c(Cl)cc(CNc2ccc(S(N)(=O)=O)cc2)cc1OC`, under setting [2], the AC50 was 10 µM [rising, partial curve]. The same measure, in the same setting: as for `Cc1ccc(NC(=O)N(Cc2ccc3c(c2)OCO3)C2CCN(Cc3ccccc3)CC2)cc1F`, the figure is 35.5 µM [rising, single point]; as for `CN(C)C(=O)Oc1ccc[n+](C)c1`, 0.891 µM [rising, partial curve].

With `O=C(c1cccc([N+](=O)[O-])c1)C12CN3CN(CN(C3)C1)C2`, under setting [1], the AC50 is 0.501 µM [rising, full curve, poor fit]. Take `Cc1cccc(OP(=O)(Nc2ccc(F)cc2)Oc2cccc(C)c2)c1`: the AC50 runs as follows: under setting [1], 6.31 µM [rising, partial curve]; under setting [2], 12.6 µM [rising, partial curve]. With `O=[N+]([O-])/C=C/c1c(OCc2ccccc2)ccc2ccccc12`, the AC50 under setting [2] is 17.8 µM [rising, partial curve]. As to `O=c1[nH]c(SCc2ccccc2Cl)nc2c1CCCC2`, the AC50 under setting [1] was 35.5 µM [rising, single point] and the AC50 under setting [2] was 31.6 µM [rising, single point].

In the case of `COc1ccc(OC)c(NC2=NCCCS2)c1`, the AC50 under setting [2] was 0.398 µM [falling, full curve, poor fit]. Turning to `O=C1C2CCCN2C(c2cccnc2)N1c1ccc(Cl)cc1` (configuration not stated), under setting [2], the AC50 is 11.2 µM [rising, single point]. On to `CCc1c(C(=O)OC)ncc2[nH]c3cc(OC)c(OC)cc3c12`, for which the AC50 runs as follows: under setting [1], 14.1 µM [falling, partial curve]; under setting [2], 0.00398 µM [falling, full curve, poor fit]. Turning to `c1ccc(CNc2ncnc3nc[nH]c23)cc1`, the AC50 under setting [1] is 1.12 µM [falling, single point] and the AC50 under setting [2] was 3.16 µM [falling, single point].

As to `O=C1Nc2ccc(Cl)cc2C(c2ccccc2)=NC1O` (configuration not stated), the half-maximal activity concentration (AC50) by setting is: under setting [1], 0.000891 µM [falling, full curve, poor fit]; under setting [2], 0.447 µM [falling, partial curve, poor fit].

For `Cc1ccc(-c2nnc(C)c(N3CCCC3)n2)cc1`, the concentration at half-maximal activity (AC50) under setting [2] was 4.47 µM [falling, single point]. In the case of `C#CCOc1cc(C2C3=C(COC3=O)Nc3cc4c(cc32)OCO4)ccc1OC` (configuration not stated), the AC50 reads like this: under setting [1], 1.26 µM [falling, full curve, poor fit]; under setting [2], 1.26 µM [falling, full curve, poor fit].

Consider `CN[C@@H](C)[C@H]1CC[C@@H](N)[C@@H](O[C@@H]2[C@@H](O)[C@@H](O[C@H]3OC[C@@](C)(O)[C@@H](NC)[C@@H]3O)[C@H](N)C[C@@H]2N)O1` (tested in a mixture with another compound), for which the AC50 is, setting by setting: under setting [1], 2.24 µM [falling, single point]; under setting [2], 1 µM [falling, partial curve, poor fit]. For the molecule `CN1[C@H]2CC(OC(=O)[C@H](CO)c3ccccc3)C[C@H]1[C@H]1O[C@H]12` (some centres not stated), the AC50 under setting [1] is 0.000794 µM [falling, full curve, poor fit] and the half-maximal activity concentration (AC50) under setting [2] was 11.2 µM [falling, partial curve, poor fit].

Turning to `FC(F)(F)c1ccc2c(c1)N(CCCN1CCN(CCCl)CC1)c1ccccc1S2`, under setting [2], the concentration at half-maximal activity (AC50) was 15.8 µM [rising, partial curve, poor fit]. On to `CCC(=O)C1=C(c2cccc([N+](=O)[O-])c2)N(C(=O)CC)n2c(nnc2C2CCCCC2)S1`, for which the half-maximal activity concentration (AC50) was 0.708 µM [rising, partial curve, poor fit] under setting [1] and 4.47 µM [rising, partial curve] under setting [2].

`O=C(CCC1CCCC1)c1c(O)c2ccccc2oc1=O`: the AC50 is 35.5 µM [rising, single point] under setting [1] and 25.1 µM [rising, partial curve] under setting [2]. In the case of `O=C1NC(=O)C(=Cc2ccc(OCC(=O)N3CCOCC3)cc2)C(=O)N1`, the AC50 under setting [1] is 0.158 µM [falling, single point].

Source of the values: PubChem BioAssay AID1487 (National Center for Advancing Translational Sciences (NCATS), 2009).
